# Test results from PMC7819943, “Rice protein-binding microarrays: a tool to detect cis-acting elements near promoter regions in rice”.
# Chains of the proteins cited; added tags and fusions are not shown.
# UniProt Q0JBA9, entry or part of it: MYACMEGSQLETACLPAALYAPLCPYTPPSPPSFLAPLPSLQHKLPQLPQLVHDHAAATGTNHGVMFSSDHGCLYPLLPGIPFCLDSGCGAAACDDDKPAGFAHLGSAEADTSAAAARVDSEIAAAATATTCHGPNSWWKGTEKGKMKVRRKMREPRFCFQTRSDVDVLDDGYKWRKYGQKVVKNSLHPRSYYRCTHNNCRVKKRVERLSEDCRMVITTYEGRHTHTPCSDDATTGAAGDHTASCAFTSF
# Some of the results follow.
# Molecular target: OsWRKY34 (Oryza sativa, UniProt Q0JBA9 1-250)
# Assay: protein-binding microarray (RPBM); PBS, 2% BSA, 51.3 ng/ul salmon testes DNA, 50 uM zinc acetate, 200 nM TF, 25 C, 1 h; high values mean tight binding
# Conditions: protein: recombinant; tags: N-terminal polyhistidine and DsRed monomer fusion (pET32a); label: CyDye5-dUTP incorporated in the synthesized complementary strand; 3' TTTTT single-stranded linker to array surface; dsDNA, one strand shown
# Summary of the method: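 Transcription factors, each fused N-terminally to a polyhistidine tag and DsRed, were expressed in E. coli BL21-CodonPlus and purified on Ni–NTA. A custom Agilent array was made double-stranded by primer extension with Cy5-dUTP and blocked with 2% BSA. It was incubated with 200 nM protein in PBS, 2% BSA, salmon testes DNA and 50 µM zinc acetate at 25 °C for 1 h, then washed. The binding signal is per-feature fluorescence intensity (arbitrary units) read on an Axon 4000B scanner.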
row,Sequence,binding signal
1,AAATTAACCACACTCGCGCCGCCATTCTCTTCTTCTTCTTCGGAGTCACCTAGTGCAG,20600 fluorescence intensity (a.u.)
2,TAAGCTAAAAATCCTAGGTATTTTTTTATATTCTTAGCTACGGAGTCACCTAGTGCAG,8580 fluorescence intensity (a.u.)
3,TCCCTGCCGGTACTGTGCAAGTACTTTTTTAATTTTTTTTCGGAGTCACCTAGTGCAG,8300 fluorescence intensity (a.u.)
4,AAGTGAGACATGCCACCCACGCGTCCATCTAATCTAATCTCGGAGTCACCTAGTGCAG,8040 fluorescence intensity (a.u.)
5,ACGTTTTTTTTTCTCCAGGTTTTTTTTGGATCGGACTCTTCGGAGTCACCTAGTGCAG,8880 fluorescence intensity (a.u.)
6,TCCCTCTCACGCCGCCGCCGCCTCGCCGCTTTCCTCTCTCCGGAGTCACCTAGTGCAG,8610 fluorescence intensity (a.u.)
7,ATACACACAGGCACACGTCCCACTCACTCGCTGCCTGCTCCGGAGTCACCTAGTGCAG,9200 fluorescence intensity (a.u.)
8,CAGTTTTTACTACTCTCGTGTCAGTCCTGCCGCTCGTTTCCGGAGTCACCTAGTGCAG,10100 fluorescence intensity (a.u.)
9,GCTTGTATTCTCTGCCGAAATCTTAAAATCTGCTGTTTCCCGGAGTCACCTAGTGCAG,10900 fluorescence intensity (a.u.)
10,TCTGCTTACCCTTCACGACGGCCACCTGTCACCATCATAGCGGAGTCACCTAGTGCAG,10500 fluorescence intensity (a.u.)
11,CGTTCCGCGAGGTCACCGTCCATCTCGACGGCGACGTCGTCGGAGTCACCTAGTGCAG,12400 fluorescence intensity (a.u.)
12,GTCTTCAGTGTAGCACTCGTTGTAATTGGCATCTTGTATGCGGAGTCACCTAGTGCAG,11300 fluorescence intensity (a.u.)
13,CGAAAGCCTTATTCTGCACACTGATCTTCCTAATTATTTTCGGAGTCACCTAGTGCAG,9320 fluorescence intensity (a.u.)
14,TGTTTCTTTTTCCGCGCGCACGTTTCCCAAACTACTAAACCGGAGTCACCTAGTGCAG,14400 fluorescence intensity (a.u.)
15,AGTTATCTCTTAATTGTATTCTAGTCTCTTTTCGAGTTGCCGGAGTCACCTAGTGCAG,9490 fluorescence intensity (a.u.)
16,TGACTTCCTTGCTGCCGGCCGAGTGTTTTTCCCTCCTTTCCGGAGTCACCTAGTGCAG,14300 fluorescence intensity (a.u.)
17,ATTGCAAGTCATTTTTGTTTTGTACTAAGTCAAATTTACACGGAGTCACCTAGTGCAG,9400 fluorescence intensity (a.u.)
18,ATTTGATACTTCTCTCGCCTTTCTTTATTATTCTCCCGCTCGGAGTCACCTAGTGCAG,8420 fluorescence intensity (a.u.)
19,CACCAACTTATCAGGCAGCACCTTCATCGAGCTCAGCAACCGGAGTCACCTAGTGCAG,8050 fluorescence intensity (a.u.)
20,GGCTTGATTTCTTCTTTTTTCTAATTTTCATATGGCTATTCGGAGTCACCTAGTGCAG,9800 fluorescence intensity (a.u.)
21,GACTGCGCCATCACCATCCATCTACAGAAGCATGCATGCACGGAGTCACCTAGTGCAG,9270 fluorescence intensity (a.u.)

row,Sequence,binding signal
1,GGATCTCTACCTTCGCCTCCAGACCGGCGCTCCGTCTCTCCGGAGTCACCTAGTGCAG,9380 fluorescence intensity (a.u.)
2,CAAAACTTTGACCAAAACGAGACCATGCAGCAATCAACCCCGGAGTCACCTAGTGCAG,8170 fluorescence intensity (a.u.)
3,TATTTTACGCACTTGTTCCATTTCCCCTGTTTGTTTGCCGCGGAGTCACCTAGTGCAG,15900 fluorescence intensity (a.u.)
4,CTCCTCCATGCAAGCTCTCTTGTGCTTCTTTTTTTAATTTCGGAGTCACCTAGTGCAG,11100 fluorescence intensity (a.u.)
5,TGGGGCCACGAGCGTGCCACGCCATCATCAAACACGTTTCCGGAGTCACCTAGTGCAG,8500 fluorescence intensity (a.u.)
6,TGCCTGTGTGTGTCACTCTTCTCATGATCTCATCACACCACGGAGTCACCTAGTGCAG,12000 fluorescence intensity (a.u.)
7,AAGGCGCGCCGTCGCTCGCTTACATCCTCCACGTGTGCTCCGGAGTCACCTAGTGCAG,9020 fluorescence intensity (a.u.)
8,AGAAATTATCACTTGTTTGTCTTTTGTTAGTCTTTTTTTTCGGAGTCACCTAGTGCAG,9060 fluorescence intensity (a.u.)
9,AACTCCAGGGCCCACATGTCATCATACGAAAAAACGCGTACGGAGTCACCTAGTGCAG,10900 fluorescence intensity (a.u.)
10,CATTTCACTCCTTTACATCACATTTCTAGCCACCCTCTCACGGAGTCACCTAGTGCAG,10800 fluorescence intensity (a.u.)
11,TAGCTCGCTTGTCCTAATCCTCCTCTCTTTCTGCAACAAGCGGAGTCACCTAGTGCAG,10700 fluorescence intensity (a.u.)
12,GGATTTCCTACCTCCCGCTTGGCTTCTCCTCGAATCCGATCGGAGTCACCTAGTGCAG,9530 fluorescence intensity (a.u.)
13,TTCTTCCCGGCGGCGTGGTCGTCGCTGTTCCCCACCCGCCCGGAGTCACCTAGTGCAG,9000 fluorescence intensity (a.u.)
14,CCTGTGCCCATATCCTGTTGTTTCCAGTAGACATCCTTGGCGGAGTCACCTAGTGCAG,10200 fluorescence intensity (a.u.)
15,TGTTTTACATCTATCTTCTTGCATTTTATTTTCCTATATGCGGAGTCACCTAGTGCAG,9920 fluorescence intensity (a.u.)
16,AAATCAAATAAAGCTTGTATATCTCTGTTTATGTAACATACGGAGTCACCTAGTGCAG,8070 fluorescence intensity (a.u.)
17,CGCCACCGGCACCTCGCCGCCCGCCCATGTCCACCGCCCACGGAGTCACCTAGTGCAG,8540 fluorescence intensity (a.u.)
18,TATCCATAGTAGCCATGGTCACATCAGGAGGAGGGGAGGTCGGAGTCACCTAGTGCAG,11900 fluorescence intensity (a.u.)
19,GTACTCTCGCTGTACGTAGCGTTCGTGTTGATAATAGATCCGGAGTCACCTAGTGCAG,8200 fluorescence intensity (a.u.)
20,TCACTGCATAAACTACACCATCCGTCTCCAATGACTCCCGCGGAGTCACCTAGTGCAG,9510 fluorescence intensity (a.u.)
21,CAACACACAACCCAACTCTCATCTCATCACAACCGCGCGACGGAGTCACCTAGTGCAG,10300 fluorescence intensity (a.u.)

# Looked up above.
# For binding signal, TGGGGCCACGAGCGTGCCACGCCATCATCAAACACGTTTCCGGAGTCACCTAGTGCAG has 8500 fluorescence intensity (a.u.)
# For binding signal, TCACTGCATAAACTACACCATCCGTCTCCAATGACTCCCGCGGAGTCACCTAGTGCAG has 9510 fluorescence intensity (a.u.)
# For binding signal, TGTTTTACATCTATCTTCTTGCATTTTATTTTCCTATATGCGGAGTCACCTAGTGCAG has 9920 fluorescence intensity (a.u.)

# Additional records

row,Sequence,binding signal
1,TCCGCTGTTCTTGGTCAATCTTCTGTCAAAGTGCACAATACGGAGTCACCTAGTGCAG,8240 fluorescence intensity (a.u.)
2,TCTCTCTGAGAACCTATAGAATATTTGCAATTTTTTTTCTCGGAGTCACCTAGTGCAG,8370 fluorescence intensity (a.u.)
3,CTCTCGTCTCGGAGAAGGCAACGTCGCCCTCGCCGCCGCGCGGAGTCACCTAGTGCAG,8880 fluorescence intensity (a.u.)
4,TTTCTTTTCCTAAACATGATACCTCGGAATCCATACTGTCCGGAGTCACCTAGTGCAG,8260 fluorescence intensity (a.u.)
5,ATCTTCCCCACTTCTCCATCCTGACATGGTATACTTCTTGCGGAGTCACCTAGTGCAG,8310 fluorescence intensity (a.u.)
6,ACACATCCATGAAGATCCTCTTGTCACTTAGCCAACCTAACGGAGTCACCTAGTGCAG,9040 fluorescence intensity (a.u.)
7,CTTTGTATTTCTGGATGGAGATGTGCCGATGTATTTGACTCGGAGTCACCTAGTGCAG,9600 fluorescence intensity (a.u.)
8,CCATCTCTGCCAGTTAGTTTCTTAATGATTTGGATTTTTGCGGAGTCACCTAGTGCAG,8590 fluorescence intensity (a.u.)
9,ACGGATATAGTGGTGGTGGTGGAGGAATGATGGTGAGCGGCGGAGTCACCTAGTGCAG,9370 fluorescence intensity (a.u.)
10,TGTGACACGCCAAAACTTTACACCCCTGGATCTAAACACACGGAGTCACCTAGTGCAG,8780 fluorescence intensity (a.u.)
11,TCCATTACTACTCTCCAGTGTTCTTTTTTCCGTACCCATGCGGAGTCACCTAGTGCAG,9250 fluorescence intensity (a.u.)
12,GCTGTTTTTGTTCCTTTTTTTTTAACACGGGTTCATCAAGCGGAGTCACCTAGTGCAG,8650 fluorescence intensity (a.u.)
13,GACATACACCATCTCACAGTTGATGAAGCTCACTTCCATCCGGAGTCACCTAGTGCAG,10100 fluorescence intensity (a.u.)
14,GTTTGTCAAAAAGTCAACGGCGTCATATATTATACGGAGGCGGAGTCACCTAGTGCAG,18800 fluorescence intensity (a.u.)
15,TAATCCTTTGCTCCCTGATTGCCTCTCTGCCTCGCTGTACCGGAGTCACCTAGTGCAG,8900 fluorescence intensity (a.u.)
16,GAATAAAAGTTCAACATACACGTGTTAATTTCTGATACTCCGGAGTCACCTAGTGCAG,8320 fluorescence intensity (a.u.)
17,GCCTCGTCCCGGCGACCTTCTTCCCACCCGCCGGCCGGCTCGGAGTCACCTAGTGCAG,9360 fluorescence intensity (a.u.)
18,ACACGCCGACGCCGCGCGCGCTGCACTTTTTTACGCTTTCCGGAGTCACCTAGTGCAG,9440 fluorescence intensity (a.u.)
19,CCCTTCGTCTTCCCCGCGCCGCCATCTCATCTTCCCGTTCCGGAGTCACCTAGTGCAG,8240 fluorescence intensity (a.u.)
20,CAGTAAAACCATAACTCCTCTGCCCTTGCTTTTCTACCATCGGAGTCACCTAGTGCAG,8540 fluorescence intensity (a.u.)
21,GTTTTCCCGCGCTTTGGCGCTTCCCGCCCTTTTCCCCTATCGGAGTCACCTAGTGCAG,9440 fluorescence intensity (a.u.)

row,Sequence,binding signal
1,GCCGCCGCCGCCGCTGCCGCCTTGGCTCCTTCGCTCGTCCCGGAGTCACCTAGTGCAG,11000 fluorescence intensity (a.u.)
2,GACCGTCCGCTCGCATAACTCCGGTCTGACCGGCTCCACTCGGAGTCACCTAGTGCAG,8730 fluorescence intensity (a.u.)
3,ATCTTAGCCTCGTACCTCCTTTTGTGTGTTTAGTTTCTTACGGAGTCACCTAGTGCAG,9650 fluorescence intensity (a.u.)
4,GTTTTTAGCTTCCTGTTCCACCCATTAGTAAAAACTGCTGCGGAGTCACCTAGTGCAG,8540 fluorescence intensity (a.u.)
5,TTGGTTGAGTCGTTGTTTGCCTACTCCACAGCATCCATCACGGAGTCACCTAGTGCAG,8480 fluorescence intensity (a.u.)
6,TTAAAATTTTCCGTTTTTCTTATTCCTACGTCTTCTCAAACGGAGTCACCTAGTGCAG,8410 fluorescence intensity (a.u.)
7,CGTTGACCCGAGCGAGCTCCTCTACTCGCCGCCAGCCGCTCGGAGTCACCTAGTGCAG,9500 fluorescence intensity (a.u.)
8,GCCGGAACTACTCCATCAGGTTGTCAGCCGATCGGCTGTTCGGAGTCACCTAGTGCAG,8830 fluorescence intensity (a.u.)
9,CTTTCTTTTGGAGGCCCTCCACAATTATTTTATTTTGGTTCGGAGTCACCTAGTGCAG,8260 fluorescence intensity (a.u.)
10,GGCGACTCAAGGTGGGTTCTGCGTGGGTAGGGTTTCAATCCGGAGTCACCTAGTGCAG,8630 fluorescence intensity (a.u.)
11,ATTGTGTTTCATCGTTTAGATTGTTGATGTTCAAAAGTTGCGGAGTCACCTAGTGCAG,8260 fluorescence intensity (a.u.)
12,CGTGGGGTGGGATCGGAAGCAGTGGAGTTGTTTTTATTATCGGAGTCACCTAGTGCAG,16500 fluorescence intensity (a.u.)
13,ACGACGTTGAGTCGTTGACCTCGCTGCTGAGTGTTGACCCCGGAGTCACCTAGTGCAG,10200 fluorescence intensity (a.u.)
14,CATCACTCACCTGCATGCGTCCACTCATCCAGCAACTGTTCGGAGTCACCTAGTGCAG,9720 fluorescence intensity (a.u.)
15,GGCTATAGCCTTGCCTTTTCTTTTCTTTTCTTTTCTTTTTCGGAGTCACCTAGTGCAG,9750 fluorescence intensity (a.u.)
16,CTCCACCACGCACACACACTCCACACACGCACCCCTACACCGGAGTCACCTAGTGCAG,10800 fluorescence intensity (a.u.)
17,CTACCTAGTCGTAGCTAGCCACCACCTACTTCTGCTCTTCCGGAGTCACCTAGTGCAG,9840 fluorescence intensity (a.u.)
18,ATAAAATGCTCGCATTGTCTGTCGCCTCATCGCTTGTTCTCGGAGTCACCTAGTGCAG,9120 fluorescence intensity (a.u.)
19,TCGATCTTCGCCTCCGACTTCGCTTTGATCCAATCTTCTTCGGAGTCACCTAGTGCAG,9370 fluorescence intensity (a.u.)
20,GATTTGGCTATGGTCGTTGGATTTGAGGTTAGGGTTAAAACGGAGTCACCTAGTGCAG,8850 fluorescence intensity (a.u.)
21,CAACCCCGGGAAGACTACTCATCATTCGTTAGGTCGTAGTCGGAGTCACCTAGTGCAG,8090 fluorescence intensity (a.u.)
